# Laboratory results reported in article PMC8384837.
# Positions count from the first letter of the chain named. This is one part of the list. For some of these results: At the low end of the ranking the order means little.
# Columns and labels:
# Conditions in all cases: yeast three-hybrid, YBZ-1, SC-Leu-His + 0.5 mM 3-AT, 4 days
# [1] = biological target: T1, PUM1 PUF domain R6-CYL N1043C + Q1047L (Homo sapiens) (UniProt Q14671)
# T1 sequence: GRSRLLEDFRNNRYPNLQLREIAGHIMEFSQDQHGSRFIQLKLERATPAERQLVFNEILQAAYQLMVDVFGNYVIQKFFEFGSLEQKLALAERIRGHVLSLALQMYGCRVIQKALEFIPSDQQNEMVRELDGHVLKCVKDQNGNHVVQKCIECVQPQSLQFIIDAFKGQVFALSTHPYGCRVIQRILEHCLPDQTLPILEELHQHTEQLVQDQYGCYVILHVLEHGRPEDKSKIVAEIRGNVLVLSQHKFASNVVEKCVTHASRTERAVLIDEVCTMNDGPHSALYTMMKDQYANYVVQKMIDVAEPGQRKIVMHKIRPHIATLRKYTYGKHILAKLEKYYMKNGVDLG
# [2] = biological target: T2, PUM1 PUF domain R6-CYT N1043C + Q1047T (UniProt Q14671)
# T2 sequence: T1 sequence with L220T
# [3] = biological target: T3, PUM1 PUF domain R6-GFE N1043G + Y1044F + Q1047E (Homo sapiens) (UniProt Q14671)
# T3 sequence: T1 sequence with C216G, Y217F, L220E
# [4] = biological target: T4, PUM1 PUF domain R6-AWV N1043A + Y1044W + Q1047V (UniProt Q14671)
# T4 sequence: T1 sequence with C216A, Y217W, L220V
# [5] = biological target: T5, PUM1 PUF domain R6-AYG N1043A + Q1047G (UniProt Q14671)
# T5 sequence: T1 sequence with C216A, L220G
# [6] = biological target: T6, PUM1 PUF domain R6-CWS N1043C + Y1044W + Q1047S (UniProt Q14671)
# T6 sequence: T1 sequence with Y217W, L220S
# [7] = biological target: T7, PUM1 PUF domain R6-DFQ N1043D + Y1044F (UniProt Q14671)
# T7 sequence: T1 sequence with C216D, Y217F, L220Q
# [8] = biological target: T8, PUM1 PUF domain R6-DWI N1043D + Y1044W + Q1047I (UniProt Q14671)
# T8 sequence: T1 sequence with C216D, Y217W, L220I
# [9] = biological target: T9, PUM1 PUF domain R6-DWV N1043D + Y1044W + Q1047V (UniProt Q14671)
# T9 sequence: T1 sequence with C216D, Y217W, L220V
# [10] = biological target: T10, PUM1 PUF domain R6-DYQ N1043D (UniProt Q14671)
# T10 sequence: T1 sequence with C216D, L220Q
# [11] = biological target: T11, PUM1 PUF domain R6-EWG N1043E + Y1044W + Q1047G (UniProt Q14671)
# T11 sequence: T1 sequence with C216E, Y217W, L220G
# [12] = biological target: T12, PUM1 PUF domain R6-EWV N1043E + Y1044W + Q1047V (UniProt Q14671)
# T12 sequence: T1 sequence with C216E, Y217W, L220V
# [13] = biological target: T13, PUM1 PUF domain R6-FRI N1043F + Y1044R + Q1047I (UniProt Q14671)
# T13 sequence: T1 sequence with C216F, Y217R, L220I
# [14] = biological target: T14, PUM1 PUF domain R6-FWR N1043F + Y1044W + Q1047R (UniProt Q14671)
# T14 sequence: T1 sequence with C216F, Y217W, L220R
# [15] = biological target: T15, PUM1 PUF domain R6-FWS N1043F + Y1044W + Q1047S (UniProt Q14671)
# T15 sequence: T1 sequence with C216F, Y217W, L220S
# [16] = biological target: T16, PUM1 PUF domain R6-FYS N1043F + Q1047S (UniProt Q14671)
# T16 sequence: T1 sequence with C216F, L220S
# [17] = biological target: T17, PUM1 PUF domain R6-GFA N1043G + Y1044F + Q1047A (UniProt Q14671)
# T17 sequence: T1 sequence with C216G, Y217F, L220A
# [18] = biological target: T18, PUM1 PUF domain R6-DFE N1043D + Y1044F + Q1047E (UniProt Q14671)
# T18 sequence: T1 sequence with C216D, Y217F, L220E
# [19] = biological target: T19, PUM1 PUF domain R6-FRV N1043F + Y1044R + Q1047V (UniProt Q14671)
# T19 sequence: T1 sequence with C216F, Y217R, L220V
# [20] = biological target: T20, PUM1 PUF domain R6-GFC N1043G + Y1044F + Q1047C (UniProt Q14671)
# T20 sequence: T1 sequence with C216G, Y217F, L220C
Sequence,binding signal (log2 enrichment (interaction score)) [1],binding signal (log2 enrichment (interaction score)) [2],binding signal (log2 enrichment (interaction score)) [3],binding signal (log2 enrichment (interaction score)) [4],binding signal (log2 enrichment (interaction score)) [5],binding signal (log2 enrichment (interaction score)) [6],binding signal (log2 enrichment (interaction score)) [7],binding signal (log2 enrichment (interaction score)) [8],binding signal (log2 enrichment (interaction score)) [9],binding signal (log2 enrichment (interaction score)) [10],binding signal (log2 enrichment (interaction score)) [11],binding signal (log2 enrichment (interaction score)) [12],binding signal (log2 enrichment (interaction score)) [13],binding signal (log2 enrichment (interaction score)) [14],binding signal (log2 enrichment (interaction score)) [15],binding signal (log2 enrichment (interaction score)) [16],binding signal (log2 enrichment (interaction score)) [17],binding signal (log2 enrichment (interaction score)) [18],binding signal (log2 enrichment (interaction score)) [19],binding signal (log2 enrichment (interaction score)) [20]
GGCUAGAACUAGUGGAUCCCCCGGCGCCCGGCGGCUCGAGCCCGGGUAAGUGUAAAUAGUCUGCAUGCCGCCGGGCGCCAUGCCUGCAGGUCGACUCUAGAAAACAUG,-1.23,< -6.41,-4.53,,,,,,,,,,,,,,,,,
GGCUAGAACUAGUGGAUCCCCCGGCGCCCGGCGGCUCGAGCCCGGGUAAGUGGAAAUAGUCUGCAUGCCGCCGGGCGCCAUGCCUGCAGGUCGACUCUAGAAAACAUG,,< -8.04,,< -8.07,< -9.6,< -7.3,-5.47,-5.35,< -6.93,-4.73,-7.86,< -8.62,< -8.09,< -7.48,< -8.76,< -7.88,< -6.39,,,
GGCUAGAACUAGUGGAUCCCCCGGCGCCCGGCGGCUCGAGCCCGGGUAAGUGAAAAUAGUCUGCAUGCCGCCGGGCGCCAUGCCUGCAGGUCGACUCUAGAAAACAUG,,,,,,,,,,,,,,,,,,-4.7,< -6.95,< -7.83
GGCUAGAACUAGUGGAUCCCCCGGCGCCCGGCGGCUCGAGCCCGGGUAAGUGCAAAUAGUCUGCAUGCCGCCGGGCGCCAUGCCUGCAGGUCGACUCUAGAAAACAUG,-4.27,,-5.49,< -6.84,< -7.97,< -7.42,-3.91,-4.59,< -7.79,-5.51,< -6.95,< -6.72,< -6.97,-5.75,< -6.44,< -7.64,< -8.26,-5.03,< -8.05,-6.72
